Among all 200,000 compounds or so, about 25 (0.01%) were called active. The shares of active, inactive and inconclusive entries below differ from those in the screen. The call rests on the fitted dose curve; in most records, active means well fitted inhibition curve with a large enough effect in the signal ratio, with a control signal flat (not every such curve was filed as active); inconclusive means small, poorly fitted or top-dose-only effect, or effect the other way, or a change in a side signal; inactive means flat fitted curve, though single readings scatter; the % refers to the signal ratio. Potencies of inconclusive entries are doubtful fits and often do not repeat.
Assay: qHTS Assay for Modulators of Lamin A Splicing
Details: HeLa LMNA splicing GFP/RFP minigene ratio, 48 h; ratio change, negative = inhibition: at 46.1 µM (top of the series) unless noted
Summary of the method: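 S3 HeLa stable clones carrying a lamin A-EGFP splicing minigene plus DsRed2 were seeded at 600 cells/well in Opti-MEM with 2% FBS, pin-dosed and incubated 48 h at 37°C. Acumen cytometry (488 nm) gave the GFP/RFP total-intensity ratio.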
On the % scale 0 is the no-effect control and ±100 the full control effect; potency means the concentration at half of the fitted maximal effect.

| Compound | Potency | ratio change, negative = inhibition |
| --- | --- | --- |
| CC(C)(C)NC(=S)NNC(=O)c1cccc(Br)c1 | inconclusive: 14.1 µM [activator, single point] |  |
| Nc1cc(=O)[nH]c(=S)n1-c1ccccc1 |  | inactive: 11.5% |
| CCC(C)n1c(SCc2c(F)cccc2Cl)nc2ccsc2c1=O (centres undefined) |  | inconclusive: -35.1% [at 46 µM] |
| CCn1c(SCC(=O)N/N=C(\C)c2ccco2)nnc1-c1ccccc1 |  | inconclusive: 29.9% [at 46 µM] |
| COc1ccc(OC)c(NC(=O)c2oc3c(c2C)-c2nn(Cc4ccc(Cl)cc4)cc2CC3)c1 |  | inactive: 1.74% [at 46 µM] |
| CCOC(=O)c1[nH]c2ccc(OCC)cc2c1CCCN1C(=O)c2ccccc2C1=O |  | inconclusive: -0.274% |
| CCC(C)NC(=O)Cc1c(OC)ccc2cc(Br)ccc12 (centres undefined) |  | inconclusive: 10.2% [at 46 µM] |
| CCOc1ccccc1CNC(=O)C1CCN(C(=O)N2CCOc3ccc(Cl)cc32)CC1 |  | inconclusive: -35.4% [at 46 µM] |
| CCN(CC)C(=O)Cn1ncc2c([nH]c3ccc(C)cc32)c1=O |  | inconclusive: 9.09% [at 46 µM] |
| C=CC[n+]1c(/C=C2\C=Cc3cc(C)ccc3N2CC)ccc2ccccc21 |  | inconclusive: -45.2% [at 46 µM] |
| COCC(=O)N1CCCC(CNS(=O)(=O)c2ccc(OC)cc2)C1 (centres undefined) |  | inactive: -0.77% [at 46 µM] |
| Cc1cc(/C=N/n2cnnc2)c(C)n1-c1cccc(C(=O)O)c1 |  | inconclusive: -2.9% |
| O=S(=O)(c1ccc2c(c1)OCCO2)N1CCC(n2nnc3cc(C(F)(F)F)ccc32)CC1 | inconclusive: 17.8 µM [falling, single point] |  |
| C=CCN1C(=O)C(C)S/C1=N\S(=O)(=O)c1ccc(Cl)cc1 (centres undefined) |  | inconclusive: -1.79% |
| Cc1nc2ccn(Cc3ccccc3)c(=O)c2cc1C(=O)Nc1ccc(F)cc1Cl |  | inactive: 9.69% [at 46 µM] |
| CC(C)c1ccc(Nc2cc(C(=O)NCCCN(C)Cc3ccccc3)c3ccccc3n2)cc1 | inconclusive: 20 µM [cytotoxic, partial curve, poor fit] |  |
| COc1ccc2[nH]cc(CCNc3ccnc(-c4ccccc4C(F)(F)F)n3)c2c1 |  | inconclusive: -25% |
| O=C(N/N=C/c1ccc(O)c(O)c1)c1cccc(S(=O)(=O)N2CCCCC2)c1 |  | inconclusive: -21.1% [at 46 µM] |
| O=C(/C=C/c1ccccc1)OCc1cnc(Cl)s1 |  | inactive: -20.3% [at 46 µM] |
| CCOC(=O)C1(CCOc2ccccc2)CCN(Cc2cccc3nonc23)CC1 |  | inactive: 13.3% [at 46 µM] |
| COCCN=c1scc(-c2cc(OC)ccc2OC)n1/N=C/c1c[nH]c2ccccc12 |  | inactive: -29.5% |

Pulled one by one from the list above (two):

| Compound | Potency | ratio change, negative = inhibition |
| --- | --- | --- |
| O=C(N/N=C/c1ccc(O)c(O)c1)c1cccc(S(=O)(=O)N2CCCCC2)c1 |  | inconclusive: -21.1% [at 46 µM] |
| O=S(=O)(c1ccc2c(c1)OCCO2)N1CCC(n2nnc3cc(C(F)(F)F)ccc32)CC1 | inconclusive: 17.8 µM [falling, single point] |  |

Additional results follow.

| Compound | Potency | ratio change, negative = inhibition |
| --- | --- | --- |
| Cn1c(=O)n(Cc2ccccc2Cl)c(=O)c2c1nc1n2CCN1c1ccccc1 |  | inactive: -11.5% [at 46 µM] |
| CC1CCCCN1C(=O)Cc1ccc(Cl)cc1 (centres undefined) |  | inactive: 1.47% |
| COc1ccc(NC(=O)c2cc3c(=O)n(Cc4cccs4)ccc3nc2C)c(OC)c1 |  | inactive: -5.94% [at 46 µM] |
| COC(=O)CC/C(=N/Nc1ccc(Cl)c(Cl)c1)C(=O)OC |  | inconclusive: 2.63% [at 46 µM] |
| Cc1ccc(-n2ncc(C(=O)NCc3ccc4c(c3)OCO4)c2C2CCN(C(=O)OC(C)(C)C)CC2)cc1C |  | inconclusive: -23.1% [at 46 µM] |
| N#C/C(=C/c1cn(CC(=O)O)c2ccccc12)C(=O)Nc1ccccc1 |  | inconclusive: -9.8% [at 46 µM] |
| Cc1ccc(CCC(=O)Nc2ncc(Cc3cccc(Cl)c3Cl)s2)o1 |  | inconclusive: -27.8% |
| COCCN1CN(S(=O)(=O)c2ccc(Cl)cc2)c2nc3ccccc3nc21 |  | inactive: 12% |
| CC(C)c1cccc(C(C)C)c1NC(=O)CNCc1ccccc1F |  | inconclusive: 6.83% |
| CN(C(=O)CSc1nc2ccc(NC(=O)COc3ccc(F)cc3)cc2s1)c1ccccc1 |  | inconclusive: -16.2% [at 46 µM] |
| Cn1c(=O)c2c(nc(/C=C/c3cccc(Cl)c3)n2C)n(C)c1=O |  | inactive: -22.5% |
| C/C(=N/N1CCN(c2ccccc2)CC1)c1cccc([N+](=O)[O-])c1 |  | inactive: 18.1% [at 46 µM] |
| NC(=S)NN=C1C2CC3CC(C2)CC1C3 | inconclusive: 35.5 µM [activator, single point] |  |
| Cc1ccc(NC(=O)c2ccc(CSc3nnc(C)s3)cc2)cc1 |  | inactive: -8.33% |
| Cc1cccc(-c2nc(SCc3cc(=O)c4cccc(F)c4[nH]3)n[nH]2)c1 |  | inconclusive: -8.05% [at 46 µM] |
| Cc1ccc(OCC(=O)N2CCN(S(=O)(=O)c3ccc(Cl)cc3)CC2)c([N+](=O)[O-])n1 |  | inactive: -1.61% |
| Cc1sc(NC(=O)CSC2=NCCS2)nc1-c1ccccc1 |  | inactive: -17.6% |
| O=C(Cn1c(CO)nc2ccccc21)NCCc1ccc(F)cc1 |  | inactive: -14.2% [at 46 µM] |
| O=C1Nc2ccc(S(=O)(=O)N3CCCC3)c3cccc1c23 |  | inconclusive: -33.6% |
| O=C(N/N=C/C=C/c1cccc([N+](=O)[O-])c1)C(O)c1ccccc1 (centres undefined) |  | inconclusive: 20.6% [at 46 µM] |
| OC(CNCc1ccccc1)COCc1ccc(Cl)cc1 (centres undefined) |  | inconclusive: -40% [at 46 µM] |

| Compound | Potency | ratio change, negative = inhibition |
| --- | --- | --- |
| CC(C)CC(CO)N1CCN(C(=O)c2ccc(C(C)(C)C)cc2)CCC1=O (centres undefined) |  | inconclusive: 3.23% |
| CC(C)CC(=O)Nc1nnc(S(=O)(=O)N(C)c2ccc(Cl)cc2)s1 |  | inconclusive: 11.1% [at 46 µM] |
| Nc1ccc(Br)cc1C(NCC(=O)O)c1ccccc1 (centres undefined) |  | inconclusive: -17.2% [at 46 µM] |
| O=C(O)CCCCCN=C1CCc2ccccc2N1 |  | inconclusive: -1.55% |
| Cc1sc2ccccc2[n+]1CCC(C)S(=O)(=O)[O-] (centres undefined) |  | inactive: 5.37% |
| CC(C)SC1=NC(C)(C)C=C(/C=C/c2ccc(Cl)cc2Cl)N1 |  | inconclusive: -30% |
| CC(C(=O)NCc1ccco1)n1nc(-c2ccccc2)c2cc(Cl)ccc21 (centres undefined) |  | inconclusive: 11.7% |
| O=S(=O)(c1cccc2cnccc12)N1CCCNCC1 |  | inactive: 0.146% |
| CC(=O)C1=C(C)NC(SCC(=O)c2ccccc2)=C(C#N)C1c1ccco1 (centres undefined) |  | inconclusive: 20.7% |
| O=C(NCc1ccc(N2CCCC2=O)cc1)c1cn(CCc2ccccc2)nn1 |  | inactive: -0.762% |
| CC(C)SC1=NC(C)(C)C=C(/C=C/c2c(Cl)cccc2Cl)N1 | inconclusive: 28.2 µM [inhibitor, single point] |  |
| Cc1c(C(=O)N2CCCCCC2)c(S(=O)(=O)Nc2ccc(OC(F)(F)F)cc2)c(C)n1C |  | inconclusive: -10.8% [at 46 µM] |
| CCOC(=O)c1ccc(NC(=O)CSc2cc(-c3ccccc3)nc(C)n2)cc1 |  | inactive: -1.65% [at 46 µM] |
| Cc1cccc2cc(C#N)c(SCC(=O)N3CCC(C)CC3)nc12 |  | inconclusive: 9.97% |
| CCOC(=O)C(C)Oc1cccc2c(=O)n(CC(=O)N3CCCc4ccccc43)ccc12 (centres undefined) |  | inactive: -8.55% |
| CC(C)[C@H](NC(=O)OCc1ccccc1)C(=O)N[C@H](C=O)Cc1ccccc1 | inconclusive: 12.6 µM [inhibitor, partial curve, poor fit] |  |
| CC1CC2(CCCCC2)N2C(=O)C(=O)c3cccc1c32 (centres undefined) |  | inactive: 4.5% |
| O=C(O)Cc1cccc2ccccc12 |  | inconclusive: 11.8% |
| CCOC(=O)C1CCN(C(c2cc3ccc(C)c(C)c3[nH]c2=O)c2nnnn2C2CCCCC2)CC1 (centres undefined) |  | inconclusive: 12.2% |
| CCCCNC(=S)N1CCN(C(c2ccccc2)c2ccccc2)CC1 |  | inactive: 9.7% [at 46 µM] |
| NC(=O)CSc1nc2ccccc2c(=O)n1Cc1ccco1 |  | inactive: -7.98% |

As entered above.
Value for CN(C(=O)CSc1nc2ccc(NC(=O)COc3ccc(F)cc3)cc2s1)c1ccccc1 under ratio change, negative = inhibition: inconclusive: -16.2% [at 46 µM]
Value for COc1ccc(NC(=O)c2cc3c(=O)n(Cc4cccs4)ccc3nc2C)c(OC)c1 under ratio change, negative = inhibition: inactive: -5.94% [at 46 µM]

The results go on.

| Compound | Potency | ratio change, negative = inhibition |
| --- | --- | --- |
| CCOC(=O)c1cc(-c2ccccc2)n(-c2cccc(C(=O)NC(C)CC)c2)c1C (centres undefined) |  | inactive: 7.49% [at 46 µM] |
| O=C(C1CCCCC1)N(Cc1cccnc1)c1nc2c(F)cccc2s1 |  | inconclusive: -16.6% [at 46 µM] |
| O=C(Nc1ccccc1)c1cnc2ccccc2n1 |  | inactive: -6.96% |
| Cc1nc([N+](=O)[O-])c(Sc2nc3ccc([N+](=O)[O-])cc3[nH]2)n1Cc1ccccc1 |  | inconclusive: -36.7% |
| COc1cc2c(cc1OC)C(COc1ccccc1OC)N(C(=O)c1ccc(S(=O)(=O)N3CCCC3)cc1)CC2 (centres undefined) |  | inactive: 12.3% [at 46 µM] |
| Cc1cc(C)nc(/N=C(\N)Nc2ccc(OCc3ccccc3)cc2)n1 | inconclusive: 35.5 µM [inhibitor, single point] |  |
| O=S1(=O)CCC(=Nc2ccc(Cl)cc2)c2ccsc21 |  | inactive: 9.84% [at 46 µM] |
| CCCCOc1ccc(S(=O)(=O)Nc2ccc(-c3ccc(N4CCCCC4)nn3)cc2)cc1 |  | inconclusive: -27.9% [at 46 µM] |
| O=C(CSc1nc2ccccc2c(=O)n1Cc1ccc(C(=O)NC2CC2)cc1)NCc1ccco1 | inconclusive: 35.5 µM [falling, single point] |  |
| CC(CN1CCCCC1)NC(=O)c1cc(-c2ccccn2)nc2ccc(Cl)cc12 (centres undefined) |  | inconclusive: -17.3% [at 46 µM] |
| CN1CC=C2C(C#N)=C(N)C(C#N)(C#N)[C@H](c3cccs3)[C@H]2C1 |  | inactive: -8.51% |
| O=C(CN1CCN(S(=O)(=O)c2ccc3ccccc3c2)CC1)Nc1ccc2c(c1)CCC2 | inconclusive: 35.5 µM [fluorescent, single point] |  |
| CCn1c(CSCc2ccccc2)n[nH]c1=S |  | inconclusive: 6.4% [at 46 µM] |
| COc1cccc(NC(=O)CSc2cc(C)[nH]c(=O)n2)c1 |  | inactive: 11.7% [at 46 µM] |
| CC1CN(Cc2ccccc2Cl)CC(C)O1 (centres undefined) |  | inactive: -1.51% |
| CCCN(CCC)c1nc(NC2CCN(C(=O)OCC)CC2)nc(OC)n1 | inconclusive: 10 µM [fluorescent, partial curve] |  |
| Cc1cc2cc(CN(Cc3ccc4c(c3)OCO4)C(=O)c3ccco3)c(=O)[nH]c2cc1C |  | inconclusive: 11.3% |
| Cc1onc(-c2ccccc2)c1C(=O)NNC(=S)NC(=O)c1ccc(Br)cc1 |  | inconclusive: -24.6% |
| Cc1cc(Cl)c(OCCN2C(=O)NC(C)(C)C2=O)c(Br)c1 |  | inactive: -6.25% |
| COc1cc(N2CCCC2)c(OC)cc1/C=C1/NC(=S)NC1=O |  | inactive: -11.6% |
| CCc1ccc(OCC(=O)Nc2ccc(-c3nc4ccccc4o3)c(O)c2)cc1 | inconclusive: 5.62 µM [rising, partial curve, poor fit] |  |

— PubChem BioAssay AID1487 (National Center for Advancing Translational Sciences (NCATS), 2009)
